Source: patent US6197963A, “Non-peptide peptidomimetics” (The Trustees of the University of Pennsylvania, priority 1998, dated 2001)
Like-named read-outs stand apart in the source and are kept apart here. At least one structure is not confirmed: it was looked up by name or label, or the drawing left a doubt.

Chains of the proteins cited; added tags and fusions are not shown.
UniProt P25103, whole entry: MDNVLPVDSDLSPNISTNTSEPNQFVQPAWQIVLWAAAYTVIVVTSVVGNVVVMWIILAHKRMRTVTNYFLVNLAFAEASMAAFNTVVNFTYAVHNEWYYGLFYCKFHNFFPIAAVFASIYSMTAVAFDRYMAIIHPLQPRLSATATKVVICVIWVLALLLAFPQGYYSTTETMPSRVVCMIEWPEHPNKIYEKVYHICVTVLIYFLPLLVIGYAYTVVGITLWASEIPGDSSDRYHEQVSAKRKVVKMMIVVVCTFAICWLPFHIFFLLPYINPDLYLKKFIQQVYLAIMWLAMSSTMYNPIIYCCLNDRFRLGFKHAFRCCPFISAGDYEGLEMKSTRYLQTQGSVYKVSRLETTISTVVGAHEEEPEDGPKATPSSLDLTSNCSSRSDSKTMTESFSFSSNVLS

Legend:
NK-1 receptor = NK-1 receptor (Homo sapiens, UniProt P25103); test: Binding at the NK-1 receptor (Examples 109-110)
[1] = test system: SRIF receptors on AtT-20 cells; test: Binding at SRIF receptors of AtT-20 cells (Examples 104-110, Tables 1-3); parameters: species or system mouse

For `NCCCCCOC[C@H]1O[C@@H](CCc2c[nH]c3ccccc23)[C@H](OCc2ccccc2)[C@@H](OCc2ccccc2)[C@@H]1OCc1ccccc1` [IV-51, (-)-2-(1H-indol-3-yl)ethyl-1-deoxy-6-O-(5-aminopentyl)-2,3,4-tri-O-benzyl-β-D-glucose], the “binding of the NK-1 receptor” value (NK-1 receptor) was “blocked binding at the NK-1 receptor”, the “activity / affinity at SRIF receptors of AtT-20 cells” value [1] was “did not significantly alter affinity at the SRIF receptor” and the IC50 ([1]; TABLE 2 (Example 106), read-out: AtT-20 cells IC50) was 13 µM. For the same compound, the IC50 ([1]; read-out: IC50 at AtT-20 cell membranes) was 22 µM.
